Earlier results, collected in US11576943B2, “Functional food composition having cranial nerve protection effect and blood flow improvement effect” (chzin Co., Ltd., priority 2020, dated 2023).
For at least one compound, name, drawing or mass did not settle the structure.

Details: cited from earlier work

CC(C)[C@@H]1CC[C@@H](C)C[C@H]1O (racemic) [dl-menthol]
acceptable daily intake (ADI): 0.0 to 0.2 mg/kg
